US20240352060 (published 2024)

Assay: general procedure: Fmoc solid-phase peptide synthesis; Rink Amide MBHA resin (0.62 mmol/g loading); bromoacetic acid / DIC (submonomer method)
Settings: whole synthesis, 214 nm; run 1

(Npe-Nme)9
crude HPLC purity: 75% and 76%

Where “and” joins values, the source holds several entries; their conditions need not be identical. Equal values may be shown once.
